Laboratory results as given in the supplement of paper PMC13380429.
Shown are results outside the selection of hits, which stands elsewhere.

Test system: Vero E6 infected with SARS-CoV-2
Assay: inhibition of SARS-CoV-2 cytopathic effect; higher = more antiviral protection, active = above 15
Conditions: 48 h

Measured: inhibition of SARS-CoV-2 cytopathic effect

Oc1cc2c(c(Cl)c1O)CCNCC2c1ccccc1 (stereo not given)
inactive: 1 nM 0.35% | 8.33 nM 0.05% | 100 nM 0.33% | 833.33 nM -2.1% | 10000 nM -1.13%
